# Results published in publication PMC12424427.
# The chains behind the UniProt entries cited, without tags or fusion partners. Where a name states a change or a piece, a line headed by the entry shows the natural chain unless it says otherwise. Residues count along the entry.
# UniProt Q9UKV8: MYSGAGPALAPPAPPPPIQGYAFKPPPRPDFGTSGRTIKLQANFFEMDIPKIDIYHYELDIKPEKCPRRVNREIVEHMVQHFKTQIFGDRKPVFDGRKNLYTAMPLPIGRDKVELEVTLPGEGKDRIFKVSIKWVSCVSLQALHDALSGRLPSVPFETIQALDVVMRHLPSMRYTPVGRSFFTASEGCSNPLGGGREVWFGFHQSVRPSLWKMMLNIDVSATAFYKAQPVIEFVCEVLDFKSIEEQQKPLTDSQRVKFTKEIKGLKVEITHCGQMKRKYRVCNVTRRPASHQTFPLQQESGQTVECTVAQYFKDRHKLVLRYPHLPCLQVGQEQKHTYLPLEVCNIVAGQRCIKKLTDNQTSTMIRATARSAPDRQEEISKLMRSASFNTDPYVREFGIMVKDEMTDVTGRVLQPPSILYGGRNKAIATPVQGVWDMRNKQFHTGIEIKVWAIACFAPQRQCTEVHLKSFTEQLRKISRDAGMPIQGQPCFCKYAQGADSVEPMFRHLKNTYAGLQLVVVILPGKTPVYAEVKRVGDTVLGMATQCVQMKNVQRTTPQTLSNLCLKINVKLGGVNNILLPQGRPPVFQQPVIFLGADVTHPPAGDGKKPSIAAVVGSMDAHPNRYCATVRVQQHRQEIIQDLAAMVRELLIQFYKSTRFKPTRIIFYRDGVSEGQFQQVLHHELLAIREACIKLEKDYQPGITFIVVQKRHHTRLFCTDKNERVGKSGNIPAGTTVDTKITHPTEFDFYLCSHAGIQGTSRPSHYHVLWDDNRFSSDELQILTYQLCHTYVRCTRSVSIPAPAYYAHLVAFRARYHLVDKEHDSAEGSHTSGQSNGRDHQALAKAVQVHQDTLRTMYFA
# V5-AGO2-N-1∼139aa: residues 1-139 of Q9UKV8
# V5-AGO2-PIWI-581∼859aa: residues 581-859 of Q9UKV8
# Results are given in words; binding and its absence hold for the method and conditions named. Binding seen in cells or lysates may run through a third protein. Some results given as binding are weak or reduced against the parent protein; the word gives no strength. For some of these results: Tags and fused reporters may be left off the sequences shown.
# B1: RIG-I, endogenous (protein, UniProt O95786 1-925)
# chain: MTTEQRRSLQAFQDYIRKTLDPTYILSYMAPWFREEEVQYIQAEKNNKGPMEAATLFLKFLLELQEEGWFRGFLDALDHAGYSGLYEAIESWDFKKIEKLEEYRLLLKRLQPEFKTRIIPTDIISDLSECLINQECEEILQICSTKGMMAGAEKLVECLLRSDKENWPKTLKLALEKERNKFSELWIVEKGIKDVETEDLEDKMETSDIQIFYQEDPECQNLSENSCPPSEVSDTNLYSPFKPRNYQLELALPAMKGKNTIICAPTGCGKTFVSLLICEHHLKKFPQGQKGKVVFFANQIPVYEQQKSVFSKYFERHGYRVTGISGATAENVPVEQIVENNDIIILTPQILVNNLKKGTIPSLSIFTLMIFDECHNTSKQHPYNMIMFNYLDQKLGGSSGPLPQVIGLTASVGVGDAKNTDEALDYICKLCASLDASVIATVKHNLEELEQVVYKPQKFFRKVESRISDKFKYIIAQLMRDTESLAKRICKDLENLSQIQNREFGTQKYEQWIVTVQKACMVFQMPDKDEESRICKALFLYTSHLRKYNDALIISEHARMKDALDYLKDFFSNVRAAGFDEIEQDLTQRFEEKLQELESVSRDPSNENPKLEDLCFILQEEYHLNPETITILFVKTRALVDALKNWIEGNPKLSFLKPGILTGRGKTNQNTGMTLPAQKCILDAFKASGDHNILIATSVADEGIDIAQCNLVILYEYVGNVIKMIQTRGRGRARGSKCFLLTSNAGVIEKEQINMYKEKMMNDSILRLQTWDEAVFREKILHIQTHEKFIRDSQEKPKPVPDKENKKLLCRKCKALACYTADVRVIEECHYTVLGDAFKECFVSRPHPKPKQFSSFEKRAKIFCARQNCSHDWGIHVKYKTFEIPVIKIESFVVEDIATGVQTLYSKWKDFHFEKIPFDPAEMSK
# B2: Flag-RIG-I, full length (FL) (protein, UniProt O95786 1-925)
# chain: B1 chain
# Tests used:
# [1] = biological target: Argonaute 2 (AGO2), endogenous (human (endogenous in A549)) (UniProt Q9UKV8); assay: co-IP
# [2] = biological target: Argonaute 2 (AGO2), endogenous (human (endogenous in A549)) (UniProt Q9UKV8); assay: co-IP; Figure S6 (legend not shown); immunoprecipitation coupled with RNase treatment
# [3] = biological target: V5-AGO2-N-1∼139aa (human) (UniProt Q9UKV8); assay: co-IP; 293 cells transfected with Flag-RIG-I and full-length or truncated V5-AGO2; AGO2 constructs immunoprecipitated, RIG-I detected; low salt lysis buffer (150 mM NaCl, 50 mM Tris pH 7.4, 1% Triton X-100, 1 mM EDTA), 4 °C overnight
# [4] = biological target: V5-AGO2-PIWI-581∼859aa (human) (UniProt Q9UKV8); assay: as above
binder,measurement,setting,value
B1,binding,[1],binds
same,binding,[2],binds
B2,binding,[3],binds
same,binding,[4],binds
